In EP4574838A1:
Changes are numbered by the printed parent chain. Results are given in words; binding and its absence hold for the method and conditions named. Binding seen in cells or lysates may run through a third protein. Some results given as binding are weak or reduced against the parent protein; the word gives no strength.

Amino acid sequences for entries named in this document (tags omitted). Residues count along the entry.
UniProt Q9UBK5, residues 19-93: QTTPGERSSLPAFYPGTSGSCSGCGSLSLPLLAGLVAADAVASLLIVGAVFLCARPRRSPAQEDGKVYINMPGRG

B1: CAR protein of SEQ ID No. 57 (native GLUT4 transmembrane domain SEQ ID No. 13) (receptor, not shown: small tags and cut ends)
chain: NSVLEQKLISEEDLGGGGGGDIQMTQTTSSLSASLGDRVTISCRASQDISKYLNWYQQKPDGTVKLLIYHTSRLHSGVPSRFSGSGSGTDYSLTISNLEQEDIATYFCQQGNTLPYTFGGGTKLEITGGGGGSGGGGSGGGGSEVKLQESGPGLVAPSQSLSVTCTVSGVSLPDYGVSWIRQPPRKGLEWLGVIWGSETTYYNSALKSRLTIIKDNSKSQVFLKMNSLQTDDTAIYYCAKHYYYGGSYAMDYWGQGTSVTVSSSPTSKETIGDYTWTNGSQPAVQPAVHLQAQIQIRVMYTTQGGGEAWGISVLNPNKTKVQGSAEGAHPHLLLSFPYGHLSFGFMQDLQQKVVYLSYMAVEYNVSFPHAAQWTFSAQNASLRDLQAPLGQSFSASNSSIILSPAVHLDLLSLRLQAAQLPHTGVFGQSFSAPSDRSAMGPYVFLLFAVLLLGFFIFTFLCPESPRYLYIIQNLEGPARKSLKRLTGWADVSGVLAELKDEKRKLERERPLSLLQLLGSRTHRQPRVPETRGRTFDQISAAFRRTPSLLEQEVKPSTELEYLGPDENDG
B2: CAR protein of SEQ ID No. 64 (synthetic GLUT4 transmembrane domain SEQ ID No. 39) (receptor, not shown: small tags and cut ends)
chain: B1 chain with V443R, F444R
B3: CAR protein of SEQ ID No. 58 (synthetic GLUT4 transmembrane domain SEQ ID No. 17) (receptor, not shown: small tags and cut ends)
chain: B1 chain with Y442R
B4: CAR protein of SEQ ID No. 59 (synthetic GLUT4 transmembrane domain SEQ ID No. 18) (receptor, not shown: small tags and cut ends)
chain: B1 chain with V443R
B5: CAR protein of SEQ ID No. 60 (synthetic GLUT4 transmembrane domain SEQ ID No. 37) (receptor, not shown: small tags and cut ends)
chain: B1 chain with P441R, Y442R
B6: CAR protein of SEQ ID No. 61 (synthetic GLUT4 transmembrane domain SEQ ID No. 40) (receptor, not shown: small tags and cut ends)
chain: B1 chain with F444R, L445R
B7: CAR protein of SEQ ID No. 62 (synthetic GLUT4 transmembrane domain SEQ ID No. 41) (receptor, not shown: small tags and cut ends)
chain: B1 chain with L445R, L446R
B8: CAR protein of SEQ ID No. 63 (synthetic GLUT4 transmembrane domain SEQ ID No. 38) (receptor, not shown: small tags and cut ends)
chain: B1 chain with Y442R, V443R

target: DAP10 signaling protein (UniProt Q9UBK5); assay: co-immunoprecipitation by MYC tag from HYG1 cells, DAP10 immunoblot

binding, binds:
B1, B2, B3, B4, B5, B6, B7, B8

target: DAP10 signaling protein (UniProt Q9UBK5); assay: co-immunoprecipitation by MYC tag from iPSC-derived NK cells, DAP10 staining

binding, binds:
B1, B2, B3, B4, B5, B6, B7, B8

target: DAP10 signaling protein (UniProt Q9UBK5); assay: co-immunoprecipitation from iPSC-derived NK cells (summary of Examples 5-7)

binding, binds:
B2, B8

target: DAP10 signaling protein (UniProt Q9UBK5); assay: co-immunoprecipitation from HYG1 cells (summary of Examples 1-3)

binding, binds:
B2, B8
